Values of other authors as cited in patent US12622975B2, “Peptide-conjugated prodrugs” (priority 2019, dated 2026).
Converted amounts (≈) assume the structure as drawn.

Test system: E. coli K-12
Details: E. coli K-12, literature values; cited from earlier work

## O=C(O)c1cn(C2CC2)c2cc(N3CCNCC3)c(F)cc2c1=O [ciprofloxacin]
  MIC: 0.01 µg/mL (≈ 0.0302 µM)
